Paper PMC12393484
Results are given in words; binding and its absence hold for the method and conditions named. Binding seen in cells or lysates may run through a third protein. These calls come from enrichment with a bait or labelling near it, and not all partners need be listed.

Protein sequences, listed by entry. Tags and fused reporters are not part of them.
UniProt P35713: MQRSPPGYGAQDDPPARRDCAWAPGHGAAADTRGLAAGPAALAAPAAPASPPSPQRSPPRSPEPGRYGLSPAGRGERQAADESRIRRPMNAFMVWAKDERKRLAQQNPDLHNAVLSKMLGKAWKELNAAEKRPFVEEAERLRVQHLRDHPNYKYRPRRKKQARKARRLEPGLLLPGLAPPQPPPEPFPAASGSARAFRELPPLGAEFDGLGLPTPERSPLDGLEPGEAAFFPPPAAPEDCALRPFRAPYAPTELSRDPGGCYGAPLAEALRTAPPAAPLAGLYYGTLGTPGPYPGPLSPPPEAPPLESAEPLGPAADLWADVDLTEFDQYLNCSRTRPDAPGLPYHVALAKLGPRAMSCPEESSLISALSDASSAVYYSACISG
UniProt P51532: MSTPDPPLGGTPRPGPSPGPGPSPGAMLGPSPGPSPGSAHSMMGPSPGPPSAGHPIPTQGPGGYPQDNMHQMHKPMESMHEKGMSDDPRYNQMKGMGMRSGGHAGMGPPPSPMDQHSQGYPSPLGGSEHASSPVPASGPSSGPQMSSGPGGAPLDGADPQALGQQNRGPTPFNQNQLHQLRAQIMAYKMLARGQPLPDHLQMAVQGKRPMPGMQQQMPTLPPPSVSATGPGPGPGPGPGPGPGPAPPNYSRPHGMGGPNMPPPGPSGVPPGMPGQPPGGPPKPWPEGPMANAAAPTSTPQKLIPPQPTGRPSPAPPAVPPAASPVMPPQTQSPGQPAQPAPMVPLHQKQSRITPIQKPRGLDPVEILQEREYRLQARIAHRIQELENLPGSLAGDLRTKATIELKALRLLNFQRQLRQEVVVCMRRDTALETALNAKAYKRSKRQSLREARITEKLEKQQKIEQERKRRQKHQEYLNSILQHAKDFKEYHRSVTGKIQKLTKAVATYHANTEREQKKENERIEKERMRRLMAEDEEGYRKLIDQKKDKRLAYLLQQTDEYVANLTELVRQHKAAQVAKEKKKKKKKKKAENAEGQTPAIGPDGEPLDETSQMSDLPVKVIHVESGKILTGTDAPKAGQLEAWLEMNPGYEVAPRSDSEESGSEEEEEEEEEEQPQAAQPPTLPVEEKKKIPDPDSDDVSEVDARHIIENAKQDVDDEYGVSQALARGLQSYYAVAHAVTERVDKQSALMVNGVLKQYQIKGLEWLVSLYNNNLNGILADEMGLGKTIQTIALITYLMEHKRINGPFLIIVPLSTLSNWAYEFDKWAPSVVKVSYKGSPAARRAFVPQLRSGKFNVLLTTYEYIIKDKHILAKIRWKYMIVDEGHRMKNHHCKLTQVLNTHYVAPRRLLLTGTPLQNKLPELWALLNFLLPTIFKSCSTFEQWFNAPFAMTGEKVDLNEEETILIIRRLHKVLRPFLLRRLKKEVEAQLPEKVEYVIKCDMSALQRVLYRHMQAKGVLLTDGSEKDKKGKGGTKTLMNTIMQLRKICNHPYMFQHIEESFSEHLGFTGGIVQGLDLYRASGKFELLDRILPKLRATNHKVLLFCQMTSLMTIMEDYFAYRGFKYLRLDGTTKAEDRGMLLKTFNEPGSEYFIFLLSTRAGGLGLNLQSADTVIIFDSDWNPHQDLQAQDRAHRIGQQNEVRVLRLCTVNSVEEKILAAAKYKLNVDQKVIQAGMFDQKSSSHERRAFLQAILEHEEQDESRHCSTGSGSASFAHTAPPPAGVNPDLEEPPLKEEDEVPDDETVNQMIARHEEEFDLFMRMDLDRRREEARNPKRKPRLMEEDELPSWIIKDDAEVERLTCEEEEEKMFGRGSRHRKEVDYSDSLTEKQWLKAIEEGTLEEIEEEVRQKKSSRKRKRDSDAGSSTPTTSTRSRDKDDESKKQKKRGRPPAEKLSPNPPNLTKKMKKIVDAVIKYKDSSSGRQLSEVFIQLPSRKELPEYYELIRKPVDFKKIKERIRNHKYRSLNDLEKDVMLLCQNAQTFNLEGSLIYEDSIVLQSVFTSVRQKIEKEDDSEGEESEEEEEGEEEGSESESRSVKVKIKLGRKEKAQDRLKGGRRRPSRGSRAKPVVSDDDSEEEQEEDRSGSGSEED
UniProt P51531: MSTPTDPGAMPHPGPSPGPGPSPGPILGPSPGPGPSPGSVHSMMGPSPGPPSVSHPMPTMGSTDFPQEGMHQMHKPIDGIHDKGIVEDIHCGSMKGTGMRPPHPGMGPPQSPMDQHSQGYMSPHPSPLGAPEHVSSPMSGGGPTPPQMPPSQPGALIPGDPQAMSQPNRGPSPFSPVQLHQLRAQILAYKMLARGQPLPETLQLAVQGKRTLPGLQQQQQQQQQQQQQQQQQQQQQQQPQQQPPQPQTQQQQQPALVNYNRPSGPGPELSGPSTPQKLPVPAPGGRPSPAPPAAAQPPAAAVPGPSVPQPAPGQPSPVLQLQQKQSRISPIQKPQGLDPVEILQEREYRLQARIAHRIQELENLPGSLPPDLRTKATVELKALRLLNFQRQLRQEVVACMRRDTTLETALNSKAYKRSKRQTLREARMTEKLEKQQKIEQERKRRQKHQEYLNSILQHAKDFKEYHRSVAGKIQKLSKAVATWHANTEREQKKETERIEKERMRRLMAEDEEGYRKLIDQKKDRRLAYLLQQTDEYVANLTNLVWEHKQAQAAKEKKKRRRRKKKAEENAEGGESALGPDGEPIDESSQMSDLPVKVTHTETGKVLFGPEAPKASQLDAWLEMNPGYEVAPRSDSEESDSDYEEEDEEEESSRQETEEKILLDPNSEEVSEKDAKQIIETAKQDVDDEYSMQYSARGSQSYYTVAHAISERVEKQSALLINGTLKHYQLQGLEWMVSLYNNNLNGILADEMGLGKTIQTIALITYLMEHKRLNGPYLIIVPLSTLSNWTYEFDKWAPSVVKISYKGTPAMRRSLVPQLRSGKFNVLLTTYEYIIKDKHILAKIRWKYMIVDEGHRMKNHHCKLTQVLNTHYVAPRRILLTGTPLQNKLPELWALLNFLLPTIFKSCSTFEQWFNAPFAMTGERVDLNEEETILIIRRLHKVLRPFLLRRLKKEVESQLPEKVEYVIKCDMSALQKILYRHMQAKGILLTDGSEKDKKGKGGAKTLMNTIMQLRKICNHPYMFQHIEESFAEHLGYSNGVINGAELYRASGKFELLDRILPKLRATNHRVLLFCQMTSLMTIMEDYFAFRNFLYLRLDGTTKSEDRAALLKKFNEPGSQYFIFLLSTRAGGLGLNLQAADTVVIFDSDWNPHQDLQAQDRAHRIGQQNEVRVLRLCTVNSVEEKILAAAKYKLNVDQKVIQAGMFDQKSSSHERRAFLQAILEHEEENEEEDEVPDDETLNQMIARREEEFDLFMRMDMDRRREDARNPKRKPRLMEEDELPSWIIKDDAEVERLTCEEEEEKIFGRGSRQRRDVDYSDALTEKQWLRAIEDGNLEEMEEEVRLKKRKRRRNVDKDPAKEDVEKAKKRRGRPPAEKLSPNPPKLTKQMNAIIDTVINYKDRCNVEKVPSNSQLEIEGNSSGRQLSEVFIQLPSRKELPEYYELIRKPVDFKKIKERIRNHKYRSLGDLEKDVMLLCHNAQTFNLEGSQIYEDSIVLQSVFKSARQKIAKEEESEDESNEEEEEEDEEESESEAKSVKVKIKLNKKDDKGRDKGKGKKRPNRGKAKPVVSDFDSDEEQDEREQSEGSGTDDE

Biological target: BirA*-fusion of SOX18 (pFuW-myc-BirA-NLS-SOX18) (human) (UniProt P35713)
Assay: proximity labelling; BioID: BirA*SOX18 (control BirA*Cherry) in stably, latently KSHV-infected iSLK.219 cells; 50 uM biotin 24 h; Strep-Tactin purification, LC-MS; filtered with CRAPome and SAINTexpress

binding	Substance
binds	BRG1, ATPase subunit of the SWI/SNF chromatin-remodeling complex (from UniProt P51532 1-1647)
binds	BRM, SWI/SNF ATPase (from UniProt P51531 1-1590)
